{
  "sequences": {"note": "By UniProt entry, the sequences of proteins in these tests, tags left out.", "UniProt Q6WKZ8": "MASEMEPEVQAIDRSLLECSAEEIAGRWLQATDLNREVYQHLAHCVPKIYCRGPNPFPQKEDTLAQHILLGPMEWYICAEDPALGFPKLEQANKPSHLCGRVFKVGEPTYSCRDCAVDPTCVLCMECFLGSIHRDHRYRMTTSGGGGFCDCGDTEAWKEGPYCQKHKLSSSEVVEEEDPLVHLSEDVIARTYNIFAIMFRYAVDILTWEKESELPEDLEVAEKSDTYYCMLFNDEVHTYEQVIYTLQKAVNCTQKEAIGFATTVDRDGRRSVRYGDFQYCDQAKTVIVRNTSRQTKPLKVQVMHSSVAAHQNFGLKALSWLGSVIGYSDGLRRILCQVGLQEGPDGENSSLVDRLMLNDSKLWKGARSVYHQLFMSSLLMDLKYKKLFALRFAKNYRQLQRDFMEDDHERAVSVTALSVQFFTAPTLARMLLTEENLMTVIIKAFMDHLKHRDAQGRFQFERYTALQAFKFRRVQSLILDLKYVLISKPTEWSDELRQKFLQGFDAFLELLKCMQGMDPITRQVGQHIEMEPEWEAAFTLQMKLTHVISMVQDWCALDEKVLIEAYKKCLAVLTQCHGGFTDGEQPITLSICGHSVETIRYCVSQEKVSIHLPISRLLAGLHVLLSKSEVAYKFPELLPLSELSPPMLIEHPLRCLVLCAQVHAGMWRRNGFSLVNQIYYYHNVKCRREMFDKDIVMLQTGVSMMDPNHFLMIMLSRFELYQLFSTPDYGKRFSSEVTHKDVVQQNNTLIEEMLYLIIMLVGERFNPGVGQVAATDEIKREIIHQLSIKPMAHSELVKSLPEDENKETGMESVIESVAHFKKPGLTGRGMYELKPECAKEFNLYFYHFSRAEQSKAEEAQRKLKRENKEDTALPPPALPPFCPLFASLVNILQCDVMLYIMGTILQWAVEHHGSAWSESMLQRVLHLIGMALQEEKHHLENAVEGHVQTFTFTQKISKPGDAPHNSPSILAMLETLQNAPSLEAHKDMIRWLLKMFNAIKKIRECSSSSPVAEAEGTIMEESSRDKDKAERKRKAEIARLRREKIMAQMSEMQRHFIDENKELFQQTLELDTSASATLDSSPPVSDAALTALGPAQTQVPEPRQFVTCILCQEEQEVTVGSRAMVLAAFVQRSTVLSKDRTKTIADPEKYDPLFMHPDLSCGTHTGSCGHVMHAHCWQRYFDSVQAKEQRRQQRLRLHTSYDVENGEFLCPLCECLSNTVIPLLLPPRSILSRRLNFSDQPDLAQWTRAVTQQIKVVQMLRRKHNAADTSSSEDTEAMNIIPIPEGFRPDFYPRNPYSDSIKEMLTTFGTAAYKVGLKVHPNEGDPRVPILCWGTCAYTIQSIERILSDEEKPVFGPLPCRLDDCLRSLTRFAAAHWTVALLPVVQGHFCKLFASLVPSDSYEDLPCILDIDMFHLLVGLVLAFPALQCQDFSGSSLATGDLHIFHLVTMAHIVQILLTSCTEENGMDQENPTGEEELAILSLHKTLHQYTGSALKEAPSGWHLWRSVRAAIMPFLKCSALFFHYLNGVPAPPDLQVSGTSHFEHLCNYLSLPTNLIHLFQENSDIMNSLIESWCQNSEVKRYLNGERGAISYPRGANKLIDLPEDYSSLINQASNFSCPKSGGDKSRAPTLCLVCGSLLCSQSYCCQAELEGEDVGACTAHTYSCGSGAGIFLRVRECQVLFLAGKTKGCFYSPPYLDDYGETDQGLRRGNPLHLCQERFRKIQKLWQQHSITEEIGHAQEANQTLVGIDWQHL"},
  "source": "paper doi:10.1101/102442",
  "target": "T1, TEX19.1-YFP (mouse ESCs) (mouse) (UniProt Q99MV2)",
  "T1 sequence": "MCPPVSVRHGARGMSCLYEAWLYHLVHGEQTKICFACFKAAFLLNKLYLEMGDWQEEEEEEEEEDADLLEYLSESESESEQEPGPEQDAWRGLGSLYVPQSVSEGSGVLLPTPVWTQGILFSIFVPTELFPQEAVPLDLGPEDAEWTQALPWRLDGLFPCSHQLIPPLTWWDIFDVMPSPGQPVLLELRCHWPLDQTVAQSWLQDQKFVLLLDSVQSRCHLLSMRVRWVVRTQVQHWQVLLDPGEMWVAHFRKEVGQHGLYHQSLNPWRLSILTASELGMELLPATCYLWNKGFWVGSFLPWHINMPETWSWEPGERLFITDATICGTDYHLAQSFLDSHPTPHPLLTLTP",
  "experiment": "affinity purification with mass spectrometry",
  "note": "Results are given in words; binding and its absence hold for the method and conditions named. Binding seen in cells or lysates may run through a third protein. Here binding means that the protein was enriched with, or labelled near, the bait; the list need not be complete. Where a sequence is shown, tags or fusion partners need not be part of it.",
  "data": [
    {"substance": "UBR2 (endogenous, mouse ESCs) (from UniProt Q6WKZ8 1-1755) (enzyme)", "values": [
      {"measurement": "binding", "value": "binds"}
    ]}
  ]
}
